PubChem BioAssay AID1159584, Peter MacCallum Cancer Centre | 2016

Assay: 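Genes whose loss is lethal only together with E-cadherin loss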 (primary screen)
System: human MCF10A breast epithelial cells, parental and CDH1-null
Reagent: siRNA against human genes
Detection: 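ATP luminescence (CellTiter-Glo) viability per line relative to mean mock wells over all plates, and the ratio of CDH1-null to parental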
Scale: CDH1-null / parental viability ratio: higher = CDH1-null cells survive relatively better than parental; CDH1-null viability vs mock: higher = more viable CDH1-null cells; parental viability vs mock: higher = more viable parental cells
In all, the deposit lists about 18,000 reagents; this is an unselected part. Reagents against one gene are numbered here. Not given: the amount of reagent, the time to read-out.

| gene | reagent no. | CDH1-null / parental viability ratio | CDH1-null viability vs mock (fraction of mock) | parental viability vs mock (fraction of mock) |
| --- | --- | --- | --- | --- |
| GAGE4 (G antigen 4) | 1 | 1 | 0.74 | 0.74 |
| IRAK1BP1 (interleukin 1 receptor associated kinase 1 binding protein 1) | 1 | 0.59 | 0.39 | 0.66 |
| SMARCA1 (SNF2 related chromatin remodeling ATPase 1) | 1 | 1.01 | 0.82 | 0.81 |
| PITRM1 (pitrilysin metallopeptidase 1) | 1 | 1.45 | 0.9 | 0.62 |
| ZNF653 (zinc finger protein 653) | 1 | 0.81 | 0.72 | 0.89 |
| SEMA6D (semaphorin 6D) | 1 | 1.34 | 1.23 | 0.92 |
| SDE2 (spliceosome associated SDE2) | 1 | 1.22 | 0.39 | 0.32 |
| CHGA (chromogranin A) | 1 | 0.76 | 0.65 | 0.85 |
| FTH1 (ferritin heavy chain 1) | 1 | 0.88 | 1 | 1.14 |
| POF1B (POF1B actin binding protein) | 1 | 1 | 0.6 | 0.6 |
| CYSLTR2 (cysteinyl leukotriene receptor 2) | 1 | 0.82 | 0.76 | 0.93 |
| RFC4 (replication factor C subunit 4) | 1 | 1.06 | 0.68 | 0.64 |
| ASNSD1 (asparagine synthetase domain containing 1) | 1 | 0.98 | 0.9 | 0.92 |
| NDUFB4 (NADH:ubiquinone oxidoreductase subunit B4) | 1 | 0.76 | 0.6 | 0.79 |
| RNF112 (ring finger protein 112) | 1 | 1 | 0.9 | 0.9 |
| GPAM (glycerol-3-phosphate acyltransferase, mitochondrial) | 1 | 0.97 | 1.02 | 1.05 |
| FURIN (furin, paired basic amino acid cleaving enzyme) | 1 | 0.94 | 0.68 | 0.72 |
| CETN3 (centrin 3) | 1 | 0.67 | 0.58 | 0.86 |
| LAMC2 (laminin subunit gamma 2) | 1 | 0.82 | 0.6 | 0.73 |
| TMEM183A (transmembrane protein 183A) | 1 | 0.81 | 0.65 | 0.8 |
| PGM2 (phosphoglucomutase 2) | 1 | 0.8 | 0.48 | 0.6 |
| ACP4 (acid phosphatase 4) | 1 | 1.6 | 0.77 | 0.48 |
| CATSPERG (catsper channel auxiliary subunit gamma) | 1 | 1.7 | 0.68 | 0.4 |
| PLA2R1 (phospholipase A2 receptor 1) | 1 | 0.82 | 0.66 | 0.8 |
| RAN (RAN, member RAS oncogene family) | 1 | 1.71 | 0.29 | 0.17 |
| RAB3B (RAB3B, member RAS oncogene family) | 1 | 0.74 | 0.57 | 0.77 |
| MPL (MPL proto-oncogene, thrombopoietin receptor) | 1 | 1.01 | 0.86 | 0.85 |
| FUNDC2 (FUN14 domain containing 2) | 1 | 1.18 | 0.66 | 0.56 |
| METTL6 (methyltransferase 6, tRNA N3-cytidine) | 1 | 1.06 | 1 | 0.94 |
| ZNF552 (zinc finger protein 552) | 1 | 1.38 | 0.58 | 0.42 |
| COPS3 (COP9 signalosome subunit 3) | 1 | 1.39 | 0.86 | 0.62 |
| BRIP1 (BRCA1 interacting DNA helicase 1) | 1 | 1 | 0.8 | 0.8 |
| HDC (histidine decarboxylase) | 1 | 0.93 | 0.7 | 0.75 |
| PDZD7 (PDZ domain containing 7) | 1 | 0.94 | 0.6 | 0.64 |
| AGER (advanced glycosylation end-product specific receptor) | 1 | 0.81 | 0.74 | 0.91 |

Continued (2 carried over from the part before).
| gene | reagent no. | CDH1-null / parental viability ratio | CDH1-null viability vs mock (fraction of mock) | parental viability vs mock (fraction of mock) |
| --- | --- | --- | --- | --- |
| PDZD7 (PDZ domain containing 7) | 1 | 0.94 | 0.6 | 0.64 |
| AGER (advanced glycosylation end-product specific receptor) | 1 | 0.81 | 0.74 | 0.91 |
| H4C7 (H4 clustered histone 7) | 1 | 0.95 | 0.82 | 0.86 |
| C9orf152 (chromosome 9 open reading frame 152) | 1 | 0.97 | 0.86 | 0.89 |
| DCLK3 (doublecortin like kinase 3) | 1 | 0.81 | 0.76 | 0.94 |
| TNRC18 (trinucleotide repeat containing 18) | 1 | 1.14 | 0.82 | 0.72 |
| ZSWIM2 (zinc finger SWIM-type containing 2) | 1 | 0.87 | 0.91 | 1.05 |
| NADK2 (NAD kinase 2, mitochondrial) | 1 | 0.88 | 0.74 | 0.84 |
| ADGRA3 (adhesion G protein-coupled receptor A3) | 1 | 0.84 | 0.82 | 0.98 |
| ADGRD2 (adhesion G protein-coupled receptor D2) | 1 | 0.9 | 0.92 | 1.02 |
| SELENOM (selenoprotein M) | 1 | 1.25 | 1.01 | 0.81 |
| NRG3 (neuregulin 3) | 1 | 1.31 | 0.88 | 0.67 |
| RSPO1 (R-spondin 1) | 1 | 0.67 | 0.31 | 0.46 |
| PCDHGA6 (protocadherin gamma subfamily A, 6) | 1 | 1.18 | 0.79 | 0.67 |
| TLCD4 (TLC domain containing 4) | 1 | 0.82 | 0.74 | 0.9 |
| NXPE4 (neurexophilin and PC-esterase domain family member 4) | 1 | 0.78 | 0.9 | 1.16 |
| TSBP1 (testis expressed basic protein 1) | 1 | 0.91 | 0.6 | 0.66 |
| PTPN23 (protein tyrosine phosphatase non-receptor type 23) | 1 | 1.45 | 0.9 | 0.62 |
| PLEKHG7 (pleckstrin homology and RhoGEF domain containing G7) | 1 | 0.97 | 0.76 | 0.78 |
| PLEKHG7 (pleckstrin homology and RhoGEF domain containing G7) | 2 | 1.35 | 1.32 | 0.98 |
| UTF1 (undifferentiated embryonic cell transcription factor 1) | 1 | 1.07 | 0.81 | 0.76 |
| GCNT4 (glucosaminyl (N-acetyl) transferase 4) | 1 | 1.01 | 0.78 | 0.77 |
| FKBP5 (FKBP prolyl isomerase 5) | 1 | 0.87 | 0.69 | 0.79 |
| ZNF614 (zinc finger protein 614) | 1 | 1.11 | 1 | 0.9 |
| SHISA3 (shisa family member 3) | 1 | 1.3 | 0.57 | 0.44 |
| RBMY1E (RNA binding motif protein Y-linked family 1 member E) | 1 | 1.05 | 0.96 | 0.91 |
| GPR50 (G protein-coupled receptor 50) | 1 | 1.13 | 0.88 | 0.78 |
| DOCK4 (dedicator of cytokinesis 4) | 1 | 1.01 | 0.81 | 0.8 |
| DEPP1 (DEPP autophagy regulator 1) | 1 | 0.86 | 0.62 | 0.72 |
| C3orf38 (chromosome 3 open reading frame 38) | 1 | 1.29 | 0.72 | 0.56 |
| LRRC32 (leucine rich repeat containing 32) | 1 | 0.96 | 0.5 | 0.52 |
| LGALSL (galectin like) | 1 | 0.8 | 0.53 | 0.66 |
| FABP6 (fatty acid binding protein 6) | 1 | 0.95 | 0.88 | 0.93 |
| KCTD8 (potassium channel tetramerization domain containing 8) | 1 | 0.91 | 0.86 | 0.94 |
| PNOC (prepronociceptin) | 1 | 0.85 | 0.4 | 0.47 |
